Test results: patent US20080199449A1, “Methods and Compositions for Use in Treating Vascular Diseases and Conditions” (The General Hospital Corporation, priority 2005, published 2008)
Entries after “also recorded” stand apart in the source; their conditions may differ. At least one compound was matched to its structure with a doubt left.

Legend:
Format in all cases: in vivo, zebrafish
[1] = test system: AKT phosphorylation (at Ser472); assay: Quantitative Western analysis of activating AKT phosphorylation in whole embryos; details: 20 somite-stage embryos, treatment starting at 10-hpf; GS4898 25 μM; wortmannin 0.5 μM; 3 independent experiments
[2] = test system: dorsal aorta and cardinal veins; assay: Artery-vein morphology in embryos expressing GFP in endothelial cells (fli-1 promoter); details: 48-hpf fli-1 GFP embryos, GS4898 15 μM, U0126 100 μM
[3] = test system: arterial marker ephrin-B2a; assay: Whole-mount in situ hybridization with the arterial marker ephrin-B2a, with cross sections; details: 30-hpf embryos
[4] = test system: activated ERK within angioblasts; assay: Immunostain for activated (di-phosphorylated) ERK in angioblasts of fli-1 GFP embryos; details: 20-ss fli-1 GFP embryos, whole mount immunostaining, cross sections (FIG. 2K, L, N, O)
[5] = test system: ERK phosphorylation (p44/42 MAP kinase, Thr202/Tyr204); assay: Quantitative Western analysis of ERK phosphorylation in whole embryo lysates; details: 20-ss embryos, treatment starting at 10-hpf; cyclopamine 50 μM; 676475 25 μg/mL; GS4898 10 μM; LY294002 15 μM

Structure (SMILES): COC[C@H]1OC(=O)c2coc3c2[C@@]1(C)C1=C(C3=O)[C@@H]2CCC(=O)[C@@]2(C)C[C@H]1OC(C)=O [wortmannin]
- AKT phosphorylation (Ser472), phospho-AKT/AKT ratio normalized to control [1]: dramatic reduction

Structure (SMILES): N#C/C(=C(/N)Sc1ccc(N)cc1)c1ccccc1C(F)(F)F [SL327]
- Effect on aorta (artery formation) ([2]; SL327 (FIG. 3E-G)): either loss or reduction of aorta; also recorded: the DA is missing
- Effect on vein (posterior/common cardinal vein, vein formation) ([2]; SL327 (FIG. 3F, G)): expansion of the common cardinal vein; also recorded: significantly enlarged
- Dorsal aorta (DA) in cross sections of ephrin-B2a stained embryos ([3]; GS4898 15 μM, SL327 60 μM (FIG. 3C)): neither ephrin-B2a expression nor the DA is observed
- ephrin-B2a expression (whole mount) ([3]; GS4898 high dose 15 μM, SL327 60 μM (FIG. 3B)): ephrin-B2a expression is lost

Structure (SMILES): O=c1cc(N2CCOCC2)oc2c(-c3ccccc3)cccc12 [LY294002]
- ERK activation within angioblasts (merged view of activated ERK and GFP) [4]: expansion of ERK activation within the angioblast population; also recorded: relative expansion in the overlap
- ERK phosphorylation, phospho/total MAP kinase ratio normalized to control [5]: significantly increases activation of ERK; also recorded: Enhancement
